± gives the standard deviation of the averaged measurements. The list shows a part of the results. These are raw signals, not scaled to a control.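 The test system is a mixed culture of neurons, microglia and astrocytes in which bacterial LPS triggers microglia-driven neuron loss, modelling inflammatory neurodegeneration. Each compound was compared with vehicle (DMSO) wells on the same plates, and the SYK inhibitor BAY61-3606 served as the reference neuroprotective control.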

One test relates to rat primary cerebellar neuron-glia coculture. As to the kind of experiment: live neuron count (NeuO+) per image field (cells per field); higher = more surviving neurons. As to conditions: LPS 0 ng/mL; 1 µM; treatment time 3 days. The method, then: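 Primary rat (P3-7) cerebellar neuron-glia cocultures in 384-well plates were treated at DIV7 with 1 uM compound, then with or without 100 ng/mL LPS 30 min later, for 3 days. At DIV10 live cells were stained with Hoechst 33342, NeuO (live neurons), IB4-AF594 (microglia) and DRAQ7 (necrotic cells) and imaged at 10x (4 fields per well, IN Cell Analyzer 6000). Cells were classified with Cellpose/CellProfiler plus a Random Trees classifier. Values are per-well mean counts per image field (raw, not min-max normalised) and the median microglial FormFactor per image. Three technical replicates per repeat across 4 biological repeats; DMSO and BAY61-3606 serve as controls.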
As for `N#Cc1nn(-c2c(Cl)cc(C(F)(F)F)cc2Cl)c(N)c1[S+]([O-])C(F)(F)F` (configuration not stated), the live neuron count was 1910 ± 440.
The compound `CCNC(=O)C[C@@H]1N=C(c2ccc(Cl)cc2)c2cc(OC)ccc2-n2c(C)nnc21` gave a live neuron count of 2380 ± 470.
`Cc1cccc([C@H](C)c2c[nH]cn2)c1C` registered a live neuron count of 2600 ± 490.
Same read-out and setting: in the case of `O=C(c1ccccc1)C(F)(F)F` it was 2610 ± 470.
On the same count and under the same terms, the figure for `O=C1NC(=O)N(c2cccc3ccccc23)C(=O)/C1=C\c1c[nH]c2ccccc12` is 2510 ± 460; for `C=CCN(CC=C)CCc1c[nH]c2ccc(OC)cc12` it is 2590 ± 540.

The same test, now with this note: LPS 100 ng/mL; 1 µM; treatment time 3 days.
Consider `N#Cc1nn(-c2c(Cl)cc(C(F)(F)F)cc2Cl)c(N)c1[S+]([O-])C(F)(F)F` (configuration not stated), for which the live neuron count was found to be 492 ± 510.
On to `CCNC(=O)C[C@@H]1N=C(c2ccc(Cl)cc2)c2cc(OC)ccc2-n2c(C)nnc21`, for which the live neuron count was 2000 ± 730.
For the compound `Cc1cccc([C@H](C)c2c[nH]cn2)c1C`, the live neuron count stood at 514 ± 720.
As to `O=C(c1ccccc1)C(F)(F)F`, the live neuron count is 318 ± 330.
For the compound `O=C1NC(=O)N(c2cccc3ccccc23)C(=O)/C1=C\c1c[nH]c2ccccc12`, the live neuron count came to 421 ± 350.
Compound `C=CCN(CC=C)CCc1c[nH]c2ccc(OC)cc12` gave a live neuron count of 266 ± 240.

Values taken from the supplement of paper PMC10973195.
